PubChem BioAssay AID1259308 | NCATS, 2017

Screen: 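Candidate targets for better recombinant protein yield in mammalian cells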 (primary screen)
System: human HEK293 embryonic kidney cells stably expressing firefly luciferase (HEK-CMV-Luc2-Hygro)
Knock-down reagent: single siRNA against human genes, 0.8 pmol siRNA per well
Time to read-out: 72 h
Read-out: 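Luciferase light (ONE-Glo) measured on one replicate plate set and viability (CellTiter-Glo) on the other, scaled to a negative control siRNA, with robust z-scores and luciferase per cell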
Scale: total luciferase, z-score and total luciferase, % of control: higher = more reporter protein produced
Rule for the call: 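Active when the median/MAD z-score for overall luciferase is greater than 3; a gene was taken forward for validation with new siRNAs if at least two of its three siRNAs passed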
Calls: active = raised luciferase; inactive = no rise
In all, the deposit lists about 59,000 reagents; shown is an unselected part. In the full data, about 1,510 (2.6%) got an active call. 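Calls use total luciferase alone and ignore viability, so some active siRNAs may act by altering cell number.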 Entries without a mark were called inactive. Reagents against one gene are numbered here. Not all columns of the deposit are shown. No sequences are given here.

LOC646670 (retired record) #1
- total luciferase, z-score: -0.375
- total luciferase, % of control: 74.4

LOC646670 (retired record) #2
- total luciferase, z-score: -1.11
- total luciferase, % of control: 59.7

LOC646670 (retired record) #3
- total luciferase, z-score: 0.571
- total luciferase, % of control: 93.2

TPD52 #1
- total luciferase, z-score: -0.471
- total luciferase, % of control: 72.5

TPD52 #2
- total luciferase, z-score: -1.39
- total luciferase, % of control: 54.2

TPD52 #3
- total luciferase, z-score: 0.341
- total luciferase, % of control: 88.7

MAP4K1 #1
- total luciferase, z-score: -0.73
- total luciferase, % of control: 67.4

MAP4K1 #2
- total luciferase, z-score: -1.75
- total luciferase, % of control: 47.2

MAP4K1 #3
- total luciferase, z-score: 1.03
- total luciferase, % of control: 102

TMEM88 #1
- total luciferase, z-score: -2.3
- total luciferase, % of control: 36.2

TMEM88 #2
- total luciferase, z-score: 1.36
- total luciferase, % of control: 109

TMEM88 #3
- total luciferase, z-score: -2.27
- total luciferase, % of control: 36.8

SLC25A17 #1
- total luciferase, z-score: -1.02
- total luciferase, % of control: 61.7

SLC25A17 #2
- total luciferase, z-score: -0.819
- total luciferase, % of control: 65.6

SLC25A17 #3
- total luciferase, z-score: 1.22
- total luciferase, % of control: 106

2 entries from above in another layout.
{"Gene": "LOC646670 (retired record)", "siRNA no.": 1, "total luciferase, z-score": -0.375, "total luciferase, % of control": 74.4}
{"Gene": "LOC646670 (retired record)", "siRNA no.": 2, "total luciferase, z-score": -1.11, "total luciferase, % of control": 59.7}

More records:
CASP9 #1
- total luciferase, z-score: -0.702
- total luciferase, % of control: 67.9

CASP9 #2
- total luciferase, z-score: -1.08
- total luciferase, % of control: 60.4

CASP9 #3
- total luciferase, z-score: -1.54
- total luciferase, % of control: 51.2

DIP2C #1
- total luciferase, z-score: 0.442
- total luciferase, % of control: 90.7

DIP2C #2
- total luciferase, z-score: 0.162
- total luciferase, % of control: 85.1

DIP2C #3
- total luciferase, z-score: -0.775
- total luciferase, % of control: 66.5

EDDM3B #1
- total luciferase, z-score: 1.42
- total luciferase, % of control: 110

EDDM3B #2
- total luciferase, z-score: -2.22
- total luciferase, % of control: 37.8

EDDM3B #3
- total luciferase, z-score: -0.093
- total luciferase, % of control: 80

OR10X1 #1
- total luciferase, z-score: 1.92
- total luciferase, % of control: 120

OR10X1 #2
- total luciferase, z-score: -0.217
- total luciferase, % of control: 77.6

OR10X1 #3
- total luciferase, z-score: 1.6
- total luciferase, % of control: 114

PLEKHM2 #1
- total luciferase, z-score: 0.167
- total luciferase, % of control: 85.2

PLEKHM2 #2
- total luciferase, z-score: -0.00262
- total luciferase, % of control: 81.8

PLEKHM2 #3
- total luciferase, z-score: 0.802
- total luciferase, % of control: 97.8

ALB #1
- total luciferase, z-score: 0.209
- total luciferase, % of control: 86

ALB #2
- total luciferase, z-score: -0.775
- total luciferase, % of control: 66.5

ALB #3
- total luciferase, z-score: -2.3
- total luciferase, % of control: 36.2
